This is an account of results in PubChem BioAssay AID192 (DTP/NCI, 2004).

In the assay the test system is BDF1 mice, B16 melanoma ip, median survival T/C. Put plainly: NCI In Vivo Anticancer Drug Screen. Data for tumor model B16 Melanoma (intraperitoneal) in B6D2F1 (BDF1) mice. The settings on record: T/C endpoint: median survival time, higher T/C = longer survival. In outline: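 Transplantable tumor model; survival or tumor size measured; reported as T/C, treated over vehicle control.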

[1] abbreviates: dose: 50.0 mg/kg/injection, schedule: Q01DX009 (ip), vehicle: saline with Tween-80.
[2] abbreviates: dose: 100.0 mg/kg/injection, schedule: Q01DX009 (ip), vehicle: saline with Tween-80.
Setting [3] is: dose: 400.0 mg/kg/injection, schedule: Q01DX009 (ip), vehicle: saline.
[4] abbreviates: dose: 12.0 mg/kg/injection, schedule: Q01DX009 (ip), vehicle: saline.
Where [5] appears, read: dose: 12.5 mg/kg/injection, schedule: Q01DX001 (ip), vehicle: water.
The mark [6] stands for this setting: dose: 100.0 mg/kg/injection, schedule: Q01DX009 (ip), vehicle: saline.
The mark [7] stands for this setting: dose: 200.0 mg/kg/injection, schedule: Q01DX009 (ip), vehicle: saline.
Setting [8] is: dose: 400.0 mg/kg/injection, schedule: Q01DX009 (ip), vehicle: Klucel (hydroxypropylcellulose) (HPC).
Where [9] appears, read: dose: 200.0 mg/kg/injection, schedule: Q01DX009 (ip), vehicle: saline with Tween-80.
Setting [10] is: dose: 400.0 mg/kg/injection, schedule: Q01DX009 (ip), vehicle: saline with Tween-80.
The mark [11] stands for this setting: dose: 100.0 mg/kg/injection, schedule: Q01DX009 (ip), vehicle: Klucel (hydroxypropylcellulose) (HPC).
Where [12] appears, read: dose: 50.0 mg/kg/injection, schedule: Q01DX009 (ip), vehicle: saline.

The list shows only some results of the screen, not a fair sample: it is rich in T/C values a quarter to a half above the control, in often repeated tests (any T/C) and in doses without a T/C. Other doses and runs of a compound stand elsewhere. T/C: endpoint of the treated group in % of that of the vehicle group. Some doses have a count of surviving animals in place of a T/C: the source holds a T/C of zero for them, seemingly a mark for toxic or unscored doses. Some survivor counts are full or nearly so, which does not show that the dose was tolerated: survival well below the control is almost never listed, so the zero probably covers shortened survival too. Survivors were counted at the toxicity check, usually on the fifth day, unless a day is given; later deaths do not show. Schedules are NCI's codes, read here as Q, the interval in days (D) or hours (H), X, the number of doses. Some doses were run more than once; the results are listed from low to high. Where survival is the endpoint, the PubChem record calls one and a half times the control and up active, and a quarter to a half above the control has no call in these data; cut-offs in other NCI protocols can differ. Some T/C values are followed by the survivors on the day toxicity was checked, most often the fifth; where none is given, no animal had died by that day.

In the case of `[Cl][Pt+2][Cl].[NH-]c1cc(Cl)c(Cl)cc1[NH-]`, the T/C (dose: 20.0 mg/kg/injection, schedule: Q01DX009 (ip), vehicle: saline with Tween-80) is 125 % of control and the T/C (dose: 160.0 mg/kg/injection, schedule: Q01DX009 (ip), vehicle: saline with Tween-80) was 132 % of control.

`O=C/C=C/c1ccc([N+](=O)[O-])cc1`: the survivor count is 6 of 6 under setting [1] and 4 of 6 under setting [2].

Regarding `CNc1ncnc2c1cnn2C`, where the note is “dose: 80.0 mg/kg/injection, schedule: Q01DX009 (ip), vehicle: Klucel (hydroxypropylcellulose) (HPC)”, the survivor count is given as 10 of 10.

As to `OCC12COCN1COC2`, under setting [3], the T/C is 136 % of control.

On to `c1ccc([P+](C[P+](c2ccccc2)(c2ccccc2)c2ccccc2)(c2ccccc2)c2ccccc2)cc1`, for which the survivor count is 9 of 10 (dose: 3.0 mg/kg/injection, schedule: Q01DX009 (ip), vehicle: saline); 10 of 10 (dose: 6.0 mg/kg/injection, schedule: Q01DX009 (ip), vehicle: saline); 2 of 10 under setting [4].

With `COc1cccc2c1C(=O)c1c(O)c3c(c(O)c1C2=O)C[C@@](O)(C(C)=O)C[C@@H]3OC1CC(N2CCC(OC)CC2)C(O)C(C)O1` (stereo not given in full), the T/C runs as follows: (dose: 1.56 mg/kg/injection, schedule: Q01DX001 (ip), vehicle: water) 127 % of control; (dose: 3.12 mg/kg/injection, schedule: Q01DX001 (ip), vehicle: water) 133 and 137 % of control; (dose: 6.25 mg/kg/injection, schedule: Q01DX001 (ip), vehicle: water) 140 % of control; under setting [5], 145 % of control. Also, the survivor count runs as follows: under setting [5], 10 of 10; (dose: 25.0 mg/kg/injection, schedule: Q01DX001 (ip), vehicle: water) 1 of 10 and 5 of 10.

On to `CNC(=O)Oc1c(C)occc1=O`, for which the survivor count runs as follows: under setting [6], 5 of 6; under setting [7], 2 of 6; under setting [3], 0 of 6.

In the case of `NNC(=O)c1ccc(-c2ccccc2)cc1`, the survivor count (dose: 200.0 mg/kg/injection, schedule: Q01DX009 (ip), vehicle: other) is 6 of 10.

With `c1cc[c]([Pb]([c]2ccccc2)([c]2ccccc2)[n]2ccc3ccccc32)cc1`, the survivor count (dose: 4.68 mg/kg/injection, schedule: Q01DX009 (ip), vehicle: saline with Tween-80) is reported as 9 of 10.

On to `CCOc1ccc(C(C)c2cc3c(cc2OC)OCO3)cc1` (stereo not given), for which the T/C is, setting by setting: (dose: 50.0 mg/kg/injection, schedule: Q01DX009 (ip), vehicle: distilled water + Tween-80) 125 % of control; (dose: 100.0 mg/kg/injection, schedule: Q01DX009 (ip), vehicle: distilled water + Tween-80) 132 % of control; (dose: 200.0 mg/kg/injection, schedule: Q01DX009 (ip), vehicle: distilled water + Tween-80) 142 % of control [9 of 10 alive].

With `CN(CCOc1ccccc1O)CCOc1ccccc1O`, under setting [8], the survivor count is reported as 2 of 10.

Consider `O=[N+]([O-])c1ccc(/C=C2/c3cc(Cl)ccc3-c3c(Cl)cc(Cl)cc32)cc1`, for which the survivor count reads like this: (dose: 12.5 mg/kg/injection, schedule: Q01DX009 (ip), vehicle: saline with Tween-80) 6 of 6; under setting [1], 6 of 6; under setting [6], 6 of 6; under setting [7], 6 of 6; under setting [3], 6 of 6; (dose: 800.0 mg/kg/injection, schedule: Q01DX009 (ip), vehicle: saline) 5 of 6.

On to `S=c1nc[nH]c2nc[nH]c12.[Ag]`, for which the T/C (dose: 600.0 mg/kg/injection, schedule: Q01DX009 (ip), vehicle: carboxymethylcellulose (CMC)) is 125 % of control [5 of 6 alive].

Take `Cc1nnc(NS(=O)(=O)c2ccc(N=Nc3nc4[nH]c(N)nc(=S)c4[nH]3)cc2)s1`: the survivor count is listed as 10 of 10 under setting [9] and 4 of 10 under setting [10].

In the case of `CCC(CC)OCCN1CCN(CCCN2c3ccccc3Sc3ccc(C(F)(F)F)cc32)CC1`, the survivor count by setting is: (dose: 2.0 mg/kg/injection, schedule: Q01DX009 (ip), vehicle: saline with Tween-80) 10 of 10; (dose: 4.0 mg/kg/injection, schedule: Q01DX009 (ip), vehicle: saline with Tween-80) 6 of 10.

`Cc1cnc2c(=N)n(C(=O)C(F)(F)F)n(C)c2n1`: under setting [8], the survivor count is 0 of 10.

For the compound `CC1(C)Oc2c(ccc(O)c2CN2CCOCC2)C2=C1CCCC2`, for the setting “dose: 512.0 mg/kg/injection, schedule: Q01DX009 (ip), vehicle: Klucel (hydroxypropylcellulose) (HPC)”, the survivor count is given as 5 of 5.

`Cc1ccc(NC(=O)Nc2cccc3ccccc23)c(C)c1`: the survivor count under setting [8] is reported as 10 of 10.

For `CSCCC1NC(=O)C(C(C)=Nc2ccccc2)=C1O` (stereo not given), under setting [10], the survivor count is 10 of 10.

For `CC(C)C(=O)NNCc1ccccc1`, the survivor count under setting [11] was 9 of 10.

Regarding `CCOc1ccc2nc(Cl)sc2c1`, the survivor count (dose: 200.0 mg/kg/injection, schedule: Q04DX003 (ip), vehicle: Klucel (hydroxypropylcellulose) (HPC)) was 6 of 10 and the survivor count (dose: 400.0 mg/kg/injection, schedule: Q04DX003 (ip), vehicle: Klucel (hydroxypropylcellulose) (HPC)) is 0 of 10.

As for `COC1C=CC23c4cc5c(cc4C(O)OC2CN(C)C3C1)OCO5` (stereo not given), under setting [12], the T/C was 131 % of control.

Regarding `O=C1OC(COCC#Cc2ccccc2)CN1c1ccccc1` (stereo not given), the survivor count under setting [11] is 10 of 10.

Regarding `C1=CC2C=CC12` (stereo not given), where the note is “dose: 200.0 mg/kg/injection, schedule: Q04DX003 (ip), vehicle: saline with Tween-80”, the survivor count was 10 of 10.

Turning to `CC[C@]12CN3CCc4c([nH]c5ccccc45)[C@@](C(=O)OC)(c4cc5c(cc4OC)N(C)[C@H]4[C@@](O)(C(=O)OC)[C@H](OC(C)=O)[C@]6(CC)C=CCN7CC[C@]54[C@@H]76)CC(C3)[C@H]1O2` (stereo not given in full), the survivor count runs as follows: (dose: 0.38 mg/kg/injection, schedule: Q01DX009 (ip), vehicle: saline) 10 of 10; under setting [4], 5 of 6; (dose: 24.0 mg/kg/injection, schedule: Q01DX009 (ip), vehicle: saline) 8 of 10; (dose: 24.0 mg/kg/injection, schedule: Q04DX003 (ip), vehicle: saline) 3 of 6. Besides, the T/C by setting is: (dose: 3.0 mg/kg/injection, schedule: Q01DX009 (ip), vehicle: Klucel (hydroxypropylcellulose) (HPC)) 135 % of control; (dose: 3.0 mg/kg/injection, schedule: Q01DX009 (ip), vehicle: saline, evaluated on day 45) 130 % of control; (dose: 3.0 mg/kg/injection, schedule: Q01DX009 (ip), vehicle: saline, evaluated on day 60) 129 % of control; (dose: 6.0 mg/kg/injection, schedule: Q01DX009 (ip), vehicle: Klucel (hydroxypropylcellulose) (HPC)) 138 % of control; (dose: 6.0 mg/kg/injection, schedule: Q04DX003 (ip), vehicle: saline) 147 % of control.

Turning to `Nc1ccn(C2OC(COC(=O)C34CC5CC(CC(C5)C3)C4)C(O)C2O)c(=O)n1` (stereo not given), the survivor count under setting [1] was 9 of 10 and 10 of 10; the survivor count under setting [2] was 9 of 10; the survivor count under setting [9] is reported as 2 of 10.

Turning to `Cc1ccc2c(c1)C(=O)N(CC[P+](c1ccccc1)(c1ccccc1)c1ccccc1)C2=O`, the survivor count (dose: 25.0 mg/kg/injection, schedule: Q01DX009 (ip), vehicle: Klucel (hydroxypropylcellulose) (HPC)) is reported as 8 of 10.

For `O=[N+]([O-])c1cc(Cl)cc2c1nc(NCCO)c1ccccc12`, the survivor count under setting [1] is given as 6 of 6 and the survivor count under setting [2] was 6 of 6.

For the compound `O=c1[nH]c2ccccc2c2cc3ccccc3cc12`, the survivor count (dose: 25.0 mg/kg/injection, schedule: Q01DX009 (ip), vehicle: saline) is reported as 10 of 10; the survivor count under setting [12] was 10 of 10; the survivor count under setting [6] is listed as 9 of 10; the survivor count under setting [7] is on record as 10 of 10; the survivor count under setting [3] is listed as 10 of 10.
